The values below come from article doi:10.1101/2025.03.24.644882.

The chains behind the UniProt entries cited, without tags or fusion partners. Residues count along the entry.
UniProt Q68DV7, residues 24-783: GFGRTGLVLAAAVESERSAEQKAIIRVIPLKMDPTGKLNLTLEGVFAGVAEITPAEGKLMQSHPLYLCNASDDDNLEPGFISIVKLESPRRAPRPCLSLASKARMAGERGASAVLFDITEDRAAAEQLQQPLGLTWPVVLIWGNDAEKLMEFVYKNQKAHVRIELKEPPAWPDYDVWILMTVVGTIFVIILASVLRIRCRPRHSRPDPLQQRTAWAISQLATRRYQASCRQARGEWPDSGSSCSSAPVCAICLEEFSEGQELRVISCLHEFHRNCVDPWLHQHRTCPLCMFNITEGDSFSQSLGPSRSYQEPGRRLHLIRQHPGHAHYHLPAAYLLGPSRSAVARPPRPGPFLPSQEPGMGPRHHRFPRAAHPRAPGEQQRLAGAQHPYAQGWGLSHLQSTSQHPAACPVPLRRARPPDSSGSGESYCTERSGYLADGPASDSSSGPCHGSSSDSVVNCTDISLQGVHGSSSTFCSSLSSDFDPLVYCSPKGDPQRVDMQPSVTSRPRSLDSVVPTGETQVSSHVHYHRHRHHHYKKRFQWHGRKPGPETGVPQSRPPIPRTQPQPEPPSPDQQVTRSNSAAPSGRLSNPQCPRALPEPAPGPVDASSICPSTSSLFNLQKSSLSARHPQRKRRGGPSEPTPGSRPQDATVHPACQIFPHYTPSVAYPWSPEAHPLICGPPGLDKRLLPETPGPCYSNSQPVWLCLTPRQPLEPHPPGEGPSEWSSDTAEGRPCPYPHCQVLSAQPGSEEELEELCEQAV
UniProt P49674: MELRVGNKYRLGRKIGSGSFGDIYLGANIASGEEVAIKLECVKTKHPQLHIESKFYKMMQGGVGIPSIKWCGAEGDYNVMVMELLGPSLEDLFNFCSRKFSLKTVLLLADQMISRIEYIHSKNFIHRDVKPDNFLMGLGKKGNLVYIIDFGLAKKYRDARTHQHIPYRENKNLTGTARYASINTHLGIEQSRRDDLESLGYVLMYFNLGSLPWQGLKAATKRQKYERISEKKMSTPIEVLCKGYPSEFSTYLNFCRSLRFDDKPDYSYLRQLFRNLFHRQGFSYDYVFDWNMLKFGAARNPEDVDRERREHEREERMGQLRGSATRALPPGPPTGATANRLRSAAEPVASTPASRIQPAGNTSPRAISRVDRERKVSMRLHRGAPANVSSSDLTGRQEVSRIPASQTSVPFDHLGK

Common to all, as to experiment: co-IP
Assay [1] concerns the target RNF43-FLAG (E3 ubiquitin-protein ligase Ring finger protein 43, FLAG-tagged, wild type) (UniProt Q68DV7).
For assay [2], the target named is T1, N-terminally HA-tagged PRICKLE3 (human) (UniProt O43900).
T1 sequence: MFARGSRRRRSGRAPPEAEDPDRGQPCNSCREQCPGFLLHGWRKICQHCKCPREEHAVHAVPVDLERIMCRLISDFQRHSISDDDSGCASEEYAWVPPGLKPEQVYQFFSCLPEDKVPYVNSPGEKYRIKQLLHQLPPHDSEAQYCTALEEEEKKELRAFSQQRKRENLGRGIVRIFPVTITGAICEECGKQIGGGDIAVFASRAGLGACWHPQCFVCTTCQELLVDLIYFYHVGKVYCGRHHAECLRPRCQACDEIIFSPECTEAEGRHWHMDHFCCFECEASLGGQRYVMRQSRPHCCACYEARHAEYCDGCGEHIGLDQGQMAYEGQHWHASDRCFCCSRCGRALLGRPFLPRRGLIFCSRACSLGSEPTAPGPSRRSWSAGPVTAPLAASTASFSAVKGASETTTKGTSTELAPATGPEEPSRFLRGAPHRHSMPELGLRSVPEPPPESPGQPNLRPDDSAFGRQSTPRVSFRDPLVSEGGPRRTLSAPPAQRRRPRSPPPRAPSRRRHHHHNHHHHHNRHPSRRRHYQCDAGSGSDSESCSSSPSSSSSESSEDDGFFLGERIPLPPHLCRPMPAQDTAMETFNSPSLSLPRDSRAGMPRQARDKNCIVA

Assay [3] concerns the target T2, N-terminally HA-tagged PRICKLE1 (human) (UniProt Q96MT3).
T2 sequence: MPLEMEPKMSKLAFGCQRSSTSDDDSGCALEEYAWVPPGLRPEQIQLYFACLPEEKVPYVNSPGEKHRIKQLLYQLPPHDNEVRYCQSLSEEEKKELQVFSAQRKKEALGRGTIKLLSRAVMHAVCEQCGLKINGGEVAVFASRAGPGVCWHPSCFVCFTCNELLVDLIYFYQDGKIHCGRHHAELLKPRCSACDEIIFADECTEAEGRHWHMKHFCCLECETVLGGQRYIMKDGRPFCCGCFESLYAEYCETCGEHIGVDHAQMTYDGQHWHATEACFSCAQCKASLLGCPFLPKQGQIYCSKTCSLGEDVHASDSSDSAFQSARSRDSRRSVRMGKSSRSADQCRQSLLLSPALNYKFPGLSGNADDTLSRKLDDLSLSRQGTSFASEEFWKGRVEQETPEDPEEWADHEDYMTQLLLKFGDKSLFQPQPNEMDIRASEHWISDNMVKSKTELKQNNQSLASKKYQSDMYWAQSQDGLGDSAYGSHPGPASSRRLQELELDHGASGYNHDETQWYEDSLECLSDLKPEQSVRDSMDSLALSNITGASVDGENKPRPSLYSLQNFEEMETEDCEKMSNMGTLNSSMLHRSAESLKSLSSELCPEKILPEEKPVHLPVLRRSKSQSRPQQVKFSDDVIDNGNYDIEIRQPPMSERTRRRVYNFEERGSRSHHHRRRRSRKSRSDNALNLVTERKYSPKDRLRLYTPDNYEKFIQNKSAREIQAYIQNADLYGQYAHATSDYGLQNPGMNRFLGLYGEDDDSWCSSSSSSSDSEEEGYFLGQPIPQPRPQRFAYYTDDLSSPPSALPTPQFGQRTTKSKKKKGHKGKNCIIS

Assay [4] addresses T1, N-terminally HA-tagged PRICKLE3 (human). This is another data set of the same source.

Where two headings read alike, the source gives them in different places. No constants are given. Whether binding was seen depends on the method and setting. Binding seen in cells or lysates may run through a third protein. Some entries that bind do so weakly or less than the wild type. For some assays here: Tags and fused reporters may be left off the sequences shown.

For the molecule “Casein kinase 1 ε (CK1ε), endogenous (from UniProt P49674 1-416) (enzyme)”, the binding entry in assay [1] and in assay [2] was “binds” each time.

Consider “RNF43-FLAG (E3 ubiquitin-protein ligase Ring finger protein 43, FLAG-tagged, wild type) (from UniProt Q68DV7 24-783) (enzyme)”, for which the binding entry in assay [2] is reported as “binds”.

B1: VANGL1 (Van Gogh-like 1), endogenous (protein, UniProt Q8TAA9 1-524)
chain: MDTESTYSGYSYYSSHSKKSHRQGERTRERHKSPRNKDGRGSEKSVTIQPPTGEPLLGNDSTRTEEVQDDNWGETTTAITGTSEHSISQEDIARISKDMEDSVGLDCKRYLGLTVASFLGLLVFLTPIAFILLPPILWRDELEPCGTICEGLFISMAFKLLILLIGTWALFFRKRRADMPRVFVFRALLLVLIFLFVVSYWLFYGVRILDSRDRNYQGIVQYAVSLVDALLFIHYLAIVLLELRQLQPMFTLQVVRSTDGESRFYSLGHLSIQRAALVVLENYYKDFTIYNPNLLTASKFRAAKHMAGLKVYNVDGPSNNATGQSRAMIAAAARRRDSSHNELYYEEAEHERRVKKRKARLVVAVEEAFIHIQRLQAEEQQKAPGEVMDPREAAQAIFPSMARALQKYLRITRQQNYHSMESILQHLAFCITNGMTPKAFLERYLSAGPTLQYDKDRWLSTQWRLVSDEAVTNGLRDGIVFVLKCLDFSLVVNVKKIPFIILSEEFIDPKSHKFVLRLQSETSV
In the case of B1, the binding entry in assay [3] and in assay [4] was “binds” in each case.
